# Experimental data: PubChem BioAssay AID602296 (Broad Institute, 2012)
# About 190 (9.5%) of roughly 2,000 compounds were called active. This list was built around the results that the source calls inconclusive (neither active nor inactive); the mix of calls is not that of the screen.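 The calls were made as follows: active = fitted activation curve crossing 40% at a concentration no higher than the sample's top valid tested dose; inconclusive = flat fitted curve at 30% to 70% activation, or poor curve fit; inactive = signal decrease, flat curve within 30%, or the rest.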
# Test: sustained heat shock response element induction – cell-based, mouse, luciferase, cherry-pick, dose, confirmation (AID 602296);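 also: test compounds applied by themselves with no MG132 co-treatment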
# Conditions: NIH3T3-HGL HSF-1 response element luciferase, 48 h; at 26 µM (top of the series) unless noted
row,SMILES,activation
1,C/C(N)=C(/C#N)C(=O)CSc1nnc(-c2ccccc2Br)o1,inconclusive: 27.4%
2,Oc1[nH]c(N=C2N=c3ccccc3=N2)c2ccccc12,inconclusive: -26.5%
3,CCS(=O)(=O)c1ncc(Cl)c(C(=O)Nc2ccccc2OC)n1,inconclusive: -39.4%
4,S=C(NCCSCc1ccc(Cl)c(Cl)c1)Nc1ccccc1,inactive: -55.3%
5,Cc1cc(C(=O)CN2C(=O)NC3(CCCCC3)C2=O)c(C)n1Cc1ccco1,inconclusive: -28.6%
6,CCOC(=O)c1ccc(N=c2sc(C(=O)OC)cc(=O)n2Cc2ccco2)cc1,inconclusive: -104%
7,COC(=O)C1=C(C)NC(=S)NC1c1ccc(-c2cccc(Cl)c2)o1 (centres undefined),inactive: -17.3%
8,CCOc1cc(/C=C\[N+](=O)[O-])ccc1OCC(=O)N1CCOCC1,inconclusive: -97%
9,COc1ccc(N)c2c1C(=O)c1ccccc1C2=O,inconclusive: -5.1%
10,CCc1nnc(NC(=O)C(NC(=O)c2ccccc2Cl)C(C)C)s1 (centres undefined),inactive: -4.42%
11,O=C(/C(=N/N=C/c1ccc(O)c(O)c1)c1ccccc1)c1ccccc1,inactive: -87.1%
12,COc1ccc(-c2cn3cc(C)ccc3n2)cc1OC,inconclusive: -86.4%
13,CCOc1ccc(NC(=S)N(Cc2ccc(Cl)cc2)Cc2ccco2)cc1,inconclusive: -54.2%
14,CCC(C)n1cnc2c(c1=O)c1nc3ccccc3nc1n2Cc1ccc(OC)cc1 (centres undefined),inconclusive: -68.1%
15,COC(=O)c1cn(CCOc2ccc(C)cc2)c2ccccc12,inconclusive: -10.8%
16,Clc1cccc(CN2CCN(Cc3nc(CCc4ccccc4)no3)CC2)c1,inconclusive: -18.6%
17,Cc1ccc(-c2[nH]c3ccccc3c2C(C[N+](=O)[O-])c2ccco2)cc1 (centres undefined),inactive: -25.2%
18,Cc1ccc(NC2=CC(=O)C(=O)c3ccccc32)cc1,inconclusive: -99.5%
19,COCc1cc(=O)[nH]c(Nc2nc3ccc(C)cc3o2)n1,inconclusive: 152%
20,Nc1nc(CCl)nc(Nc2ccc3ccccc3c2)n1,inconclusive: -11%
21,Cn1cc([N+](=O)[O-])c(C(=O)Nc2ccc(-c3nc4ccccc4o3)cc2)n1,inconclusive: 29.4%
22,Brc1ccc(OCc2cn3ccccc3n2)cc1,inconclusive: -35%
23,Cc1oc2ccc(NS(=O)(=O)c3ccc(C(C)(C)C)cc3)cc2c1C(=O)Nc1ccccc1,inactive: -31.3%

row,SMILES,activation
1,O=c1c2ccccc2nnn1CSc1ncnc2ccccc12,inconclusive: 5.05%
2,CC(=O)c1c(C)[nH]c(C(=O)Nc2cccc(C)n2)c1C,inconclusive: -45.2%
3,Cc1ccc(-n2c(C)cc(C(=O)COc3c(CO)cc(F)cc3CO)c2C)cc1C,inactive: -13%
4,O=C(Nc1ccn(Cc2ccccc2F)n1)c1ccc(COc2ccc(Cl)cc2Cl)o1,inactive: -41.2%
5,N=c1c(S(=O)(=O)c2ccc(Br)cc2)cc2c(=O)n3ccccc3nc2n1C1CCCC1,inconclusive: -0.387%
6,Clc1ccc(OCCn2c(-c3ccco3)nc3ccccc32)cc1,inconclusive: -19.2%
7,O=C(CCCn1c(=S)[nH]c2ccc(Br)cc2c1=O)NCC1CCCO1 (centres undefined),inactive: 2.17%
8,C=C1SC(=Nc2ccccc2Cl)N(C(=O)c2sc3ccccc3c2Cl)C1(C)C,inconclusive: 19.4%
9,CC1(C)Cc2nc(NCCN3CCOCC3)c(C#N)cc2CO1,inactive: -12.8%
10,Cc1ccccc1C(=O)NCCOc1ccccc1Cl,inconclusive: -22.8%
11,O=C1C=C(Nc2ccccc2)C(=O)c2ccccc21,inconclusive: -39.9%
12,CC(c1ccc(F)cc1)n1c(Cn2ncc3ccccc3c2=O)n[nH]c1=S (centres undefined),inactive: 12.2%
13,CC(NC(=O)c1ccc(C(C)(C)C)cc1)C(c1cccs1)N1CCOCC1 (centres undefined),inactive: 3.38%
14,CCOC(=O)C1(Cc2ccc(OC)cc2)CCN(C(=O)c2cc3ccccc3[nH]2)CC1,inconclusive: 55.5%
15,COc1cc(-c2nnc(SC/C=C/c3ccccc3)n2N)cc(OC)c1OC,inactive: -22.3%
16,Cc1ccc(N=C2SC(C(=O)NCCc3ccccc3)CC(=O)N2C)cc1C (centres undefined),inconclusive: 14.9%
17,N=C1S/C(=C\c2ccc(-c3cccc(Cl)c3)o2)C(=O)N1c1nccs1,inconclusive: -4.51%
18,CSc1sc(C(=O)Nc2ccc(F)cc2F)c2c1C=CCC2,inconclusive: 21.2%
19,CSc1ccc(CCNC(=O)c2nn(C)c3c2CS(=O)(=O)c2ccccc2-3)cc1,inconclusive: -21.9%
20,COc1ccccc1N1CCN(C(=O)c2ccc3c(=O)n(Cc4ccco4)c(=S)[nH]c3c2)CC1,inactive: 4.32%
21,COc1cccc(-n2nnnc2S(C)(=O)=O)c1,inconclusive: -110%
22,C=CCc1ccc(OCC(O)CO)c(OC)c1 (centres undefined),inactive: -2.53%
23,COc1cccc(NC=C2C(=O)OC3(CCCCC3)OC2=O)c1,inactive: -0.84%

row,SMILES,activation
1,O=C(CSc1ncn[nH]1)c1cccc([N+](=O)[O-])c1,inactive: -0.937%
2,Cc1c(NC(=O)CSc2nnc3c4ccccc4n(CCc4ccccc4)c3n2)c(=O)n(-c2ccccc2)n1C,inactive: -30.7%
3,CCCSc1nnc(Sc2nnnn2-c2ccccc2)s1,inconclusive: 102%
4,O=C(Oc1ccc(C(=S)N2CCOCC2)cc1Br)c1cc(Cl)ccc1Cl,inconclusive: 6.21%
5,Cc1ccn(CC(=O)N2CCCC(N3CCN(c4ccc(F)cc4)CC3)C2)n1 (centres undefined),inconclusive: 17.8%
6,CNc1nc(Nc2ccc(C)c(Cl)c2)nc(N)c1[N+](=O)[O-],inconclusive: 130%
7,COc1ccc(N=C2C(=Nc3ccc(OC)cc3)N(c3ccc(OC)cc3)C(=S)N2C(=O)c2ccc(OC)cc2)cc1,inconclusive: 1.01%
8,COc1ccccc1/C=C/C(=O)c1cc(Br)ccc1OC(=O)c1ccco1,inconclusive: -100%
9,O=C(Nc1ccc(Cl)cn1)c1ccc([N+](=O)[O-])o1,inconclusive: -26.3%
10,Cc1ccccc1Nc1nc(N)nc(CSc2ccccc2)n1,inconclusive: -78.3%
11,COc1ccccc1CCC(=O)OCC(=O)Nc1c(Br)cc(C)cc1Br,inactive: -11.2%
12,COc1ccc(/C=C2\CN(Cc3ccccc3)C/C(=C\c3ccc(OC)c(O)c3)C2=O)cc1O,inconclusive: -87.2%
13,CCOC(=O)c1c(NC(=O)CSc2nc3ccccc3o2)sc(C)c1C,inconclusive: 16.1%
14,Cc1ccc(/C=N/NC(=O)c2cccc(S(=O)(=O)Nc3ccccc3Cl)c2)o1,inconclusive: 6.81%
15,O=c1[nH]c(SCc2ccc(Cl)cc2)nc2ccsc12,inconclusive: 12.7%
16,CCCCCn1c(SCc2cccc(C)c2)nc2c1c(=O)[nH]c(=O)n2C,inconclusive: 27.6%
17,Cc1c(C#N)c(NC(=O)CCl)n(Cc2ccccc2)c1C,inconclusive: 28%
18,Cc1cccc2cc3c(N)c(C(=O)N4CCOCC4)sc3nc12,inconclusive: -30.9%
19,O=c1cc(CSc2ccc(Cl)cc2)nc(-c2ccccn2)[nH]1,inconclusive: 77.2%
20,COc1cccc(-n2nc(C#N)c(Cl)cc2=O)c1,inconclusive: -107%
21,COc1ccc2[nH]c(C)c(CCNc3ccc(C(F)(F)F)cc3[N+](=O)[O-])c2c1,inactive: -55.4%
22,CC1(C)CC(=O)/C(=C\c2cccc([N+](=O)[O-])c2)C(C)(C)N1,inconclusive: 102%
23,CCn1c(Cl)c(C=O)s/c1=N\S(=O)(=O)c1ccccc1,inconclusive: -102%

row,SMILES,activation
1,Cc1ccnc(NC(=O)c2cc3cc(F)ccc3s2)c1,inconclusive: -7.61%
2,O=C(Nc1nc(-c2ccccn2)cs1)c1ccc(Cl)s1,inconclusive: -26.4%
3,CCOC(=O)c1sc(NC(=O)Nc2ccccc2)cc1C,inconclusive: -72.3%
4,Cc1ccc(-c2cc(C(F)(F)F)c(C#N)c(SCC(=O)O)n2)cc1,inactive: -15.1%
5,CN(C1=C(NC(=O)c2ccccc2)C(=O)c2ccccc2C1=O)C1CCS(=O)(=O)C1 (centres undefined),inconclusive: -41.9%
6,COc1ccc(OC)c(Nc2nc3ccc(C)cc3n3cnnc23)c1,inconclusive: 29.7%
7,COc1ccc(C2Nc3ccccc3C(=O)N2NS(=O)(=O)c2ccc(C)cc2)cc1 (centres undefined),inconclusive: -8.39%
8,O=C(O)c1ccc(S(=O)(=O)/N=C2\C=C(Nc3ccccc3F)C(=O)c3ccccc32)cc1,inconclusive: -103%
9,O=C(Nc1ccn(Cc2ccccc2)n1)c1n[nH]c([N+](=O)[O-])c1Cl,inconclusive: -99.1%
10,COC(=O)CCC(=O)COc1ccc(OC)cc1C#N,inconclusive: -18.3%
11,CC(=O)Nc1cccc(NC(=O)CSc2ncc(C(=O)Nc3ccccc3)c(=O)n2C)c1,inconclusive: 491%
12,COc1ccccc1N1CCN(C(=O)C(CC(C)C)NC(=O)C2CCCCC2)CC1 (centres undefined),inconclusive: -14%
13,Clc1ccc(CSc2nnc(-c3sccc3-n3cccc3)o2)cc1,inactive: -42.5%
14,Cc1ccc(C(=O)Cn2nnc(-c3ccccc3-n3cnnn3)n2)cc1,inactive: 7.09%
15,CCOC(=O)C1=C(c2ccccc2)NC(=O)NC1c1cc(Br)c(O)c(OC)c1 (centres undefined),inactive: -26.7% [at 12 µM]
16,Cc1ccc(NC(=O)c2cnn(-c3ccccc3)c2C)cc1,inconclusive: -89.4%
17,CC(C)=C1C2CCC1C1C(=O)N(c3nc(-c4ccccc4)c(C)s3)C(=O)C21 (centres undefined),inactive: -19.2%
18,O=C1c2ccccc2-c2onc3ccc(N4CCCC4)c1c23,inactive: 26.1%
19,CC(C)c1ccc(-n2cnn(-c3ncccc3[N+](=O)[O-])c2=O)cc1,inconclusive: -6.11%
20,CC(C)(C)C(=O)Nc1cccc(-c2cc(-c3c(Cl)cccc3Cl)no2)c1,inconclusive: -18.2%

# Shown bar-delimited: six of the compounds above
row | SMILES | activation
21 | COc1ccc2[nH]c(C)c(CCNc3ccc(C(F)(F)F)cc3[N+](=O)[O-])c2c1 | inactive: -55.4%
22 | CC1(C)CC(=O)/C(=C\c2cccc([N+](=O)[O-])c2)C(C)(C)N1 | inconclusive: 102%
23 | CCn1c(Cl)c(C=O)s/c1=N\S(=O)(=O)c1ccccc1 | inconclusive: -102%
1 | Cc1ccnc(NC(=O)c2cc3cc(F)ccc3s2)c1 | inconclusive: -7.61%
2 | O=C(Nc1nc(-c2ccccn2)cs1)c1ccc(Cl)s1 | inconclusive: -26.4%
3 | CCOC(=O)c1sc(NC(=O)Nc2ccccc2)cc1C | inconclusive: -72.3%
